No constants are given. Whether binding was seen depends on the method and setting. Binding seen in cells or lysates may run through a third protein. Some binding calls cover weakened binding; strength is not graded here.
Molecular target: ACSL4-GST (UniProt O60488)
Test: pull-down; GST pull down Assay Kit (FI88807, FITGENE) by the manufacturer's protocol; ACSL4-GST and GST control plasmids; in MDA-MB-231 cells

Sequences of proteins named here, by UniProt entry; tags and fusion partners are left off.
UniProt O60488: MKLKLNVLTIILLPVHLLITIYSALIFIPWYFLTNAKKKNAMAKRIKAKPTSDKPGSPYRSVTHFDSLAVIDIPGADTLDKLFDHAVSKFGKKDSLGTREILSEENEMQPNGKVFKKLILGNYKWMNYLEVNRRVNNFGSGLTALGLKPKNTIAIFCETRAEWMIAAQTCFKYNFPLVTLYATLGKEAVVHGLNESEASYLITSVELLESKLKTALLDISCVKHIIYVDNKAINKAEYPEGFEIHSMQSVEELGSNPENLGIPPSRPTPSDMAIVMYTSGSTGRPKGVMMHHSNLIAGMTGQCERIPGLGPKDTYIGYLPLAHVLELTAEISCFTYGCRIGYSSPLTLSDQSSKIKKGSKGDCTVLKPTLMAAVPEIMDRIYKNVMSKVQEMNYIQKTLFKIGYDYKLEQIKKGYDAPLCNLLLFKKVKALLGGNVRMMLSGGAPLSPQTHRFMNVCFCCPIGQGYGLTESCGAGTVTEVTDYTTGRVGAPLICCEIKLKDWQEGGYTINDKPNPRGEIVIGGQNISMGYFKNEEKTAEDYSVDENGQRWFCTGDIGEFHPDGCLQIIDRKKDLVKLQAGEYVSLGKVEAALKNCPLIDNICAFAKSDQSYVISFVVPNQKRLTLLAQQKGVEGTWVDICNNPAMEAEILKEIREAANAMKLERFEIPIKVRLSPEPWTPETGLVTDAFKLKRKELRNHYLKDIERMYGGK

B1: ZEB2 (endogenous, MDA-MB-231) (protein, UniProt O60315 1-1214)
chain: MKQPIMADGPRCKRRKQANPRRKNVVNYDNVVDTGSETDEEDKLHIAEDDGIANPLDQETSPASVPNHESSPHVSQALLPREEEEDEIREGGVEHPWHNNEILQASVDGPEEMKEDYDTMGPEATIQTAINNGTVKNANCTSDFEEYFAKRKLEERDGHAVSIEEYLQRSDTAIIYPEAPEELSRLGTPEANGQEENDLPPGTPDAFAQLLTCPYCDRGYKRLTSLKEHIKYRHEKNEENFSCPLCSYTFAYRTQLERHMVTHKPGTDQHQMLTQGAGNRKFKCTECGKAFKYKHHLKEHLRIHSGEKPYECPNCKKRFSHSGSYSSHISSKKCIGLISVNGRMRNNIKTGSSPNSVSSSPTNSAITQLRNKLENGKPLSMSEQTGLLKIKTEPLDFNDYKVLMATHGFSGTSPFMNGGLGATSPLGVHPSAQSPMQHLGVGMEAPLLGFPTMNSNLSEVQKVLQIVDNTVSRQKMDCKAEEISKLKGYHMKDPCSQPEEQGVTSPNIPPVGLPVVSHNGATKSIIDYTLEKVNEAKACLQSLTTDSRRQISNIKKEKLRTLIDLVTDDKMIENHNISTPFSCQFCKESFPGPIPLHQHERYLCKMNEEIKAVLQPHENIVPNKAGVFVDNKALLLSSVLSEKGMTSPINPYKDHMSVLKAYYAMNMEPNSDELLKISIAVGLPQEFVKEWFEQRKVYQYSNSRSPSLERSSKPLAPNSNPPTKDSLLPRSPVKPMDSITSPSIAELHNSVTNCDPPLRLTKPSHFTNIKPVEKLDHSRSNTPSPLNLSSTSSKNSHSSSYTPNSFSSEELQAEPLDLSLPKQMKEPKSIIATKNKTKASSISLDHNSVSSSSENSDEPLNLTFIKKEFSNSNNLDNKSTNPVFSMNPFSAKPLYTALPPQSAFPPATFMPPVQTSIPGLRPYPGLDQMSFLPHMAYTYPTGAATFADMQQRRKYQRKQGFQGELLDGAQDYMSGLDDMTDSDSCLSRKKIKKTESGMYACDLCDKTFQKSSSLLRHKYEHTGKRPHQCQICKKAFKHKHHLIEHSRLHSGEKPYQCDKCGKRFSHSGSYSQHMNHRYSYCKREAEEREAAEREAREKGHLEPTELLMNRAYLQSITPQGYSDSEERESMPRDGESEKEHEKEGEDGYGKLGRQDGDEEFEEEEEESENKSMDTDPETIRDEEETGDHSMDDSSEDGKMETKSDHEEDNMEDGM
- binding: binds
